Data from article PMC10870779.
No constants are given. Whether binding was seen depends on the method and setting. Binding seen in cells or lysates may run through a third protein. Binding can be weak; no strength is given. For some assays here: Where a sequence is shown, tags or fusion partners need not be part of it.

The chains behind the UniProt entries cited, without tags or fusion partners. Where a name states a change or a piece, a line headed by the entry shows the natural chain unless it says otherwise.
UniProt P83887: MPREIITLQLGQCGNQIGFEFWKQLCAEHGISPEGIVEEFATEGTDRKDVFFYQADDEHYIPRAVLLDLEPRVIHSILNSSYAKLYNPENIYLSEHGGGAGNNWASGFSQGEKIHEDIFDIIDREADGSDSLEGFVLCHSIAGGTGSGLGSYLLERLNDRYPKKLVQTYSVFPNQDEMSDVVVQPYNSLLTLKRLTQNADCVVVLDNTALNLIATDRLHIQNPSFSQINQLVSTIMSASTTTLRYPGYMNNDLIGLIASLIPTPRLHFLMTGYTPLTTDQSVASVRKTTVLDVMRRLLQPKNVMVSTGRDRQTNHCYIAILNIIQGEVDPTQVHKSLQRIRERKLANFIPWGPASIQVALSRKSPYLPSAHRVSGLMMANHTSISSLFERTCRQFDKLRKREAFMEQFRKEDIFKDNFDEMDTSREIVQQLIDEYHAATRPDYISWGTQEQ

Assays:
[1] = biological target: γ-tubulin, endogenous (mouse (endogenous in BMMCL)) (UniProt P83887); assay: co-IP; whole-cell extracts of cells expressing GIT2-TagRFP or TagRFP alone; protein A beads with rabbit Ab to tRFP or mAb to γ-tubulin; immunoblot
[2] = biological target: γ-tubulin, endogenous (mouse (endogenous in BMMCL)) (UniProt P83887); assay: co-IP; whole-cell 1% NP-40 extracts of BMMCL (HEPES buffer pH 7.6, 75 mM NaCl, 1 mM MgCl2, 1 mM EGTA) incubated with protein A beads saturated with rabbit Ab to GIT2 or mouse mAb TU-31 to γ-tubulin; endogenous proteins; immunoblot

B1: C-terminally TagRFP-tagged mouse GIT2, transcript variant 1 (protein, UniProt Q9JLQ2 1-708)
chain: MSKRLRSSDVCADCNGPDPSWASVNRGTFICDECCSVHRSLGRHISQVRHLKHTAWPPTLLQMVETLYNNGANSIWEHSLLDPASIMSGRRKANPQDKVHPNKAEFIRAKYQMLAFVHRLPCREDDSVTAKDLSKQLHSSVRTGNLETCLRLLSLGAQANFFHPEKGSTPLHVASKAGQILQAELLAVYGADPGTQDSSGKTPVDYARQGGHHELAERLIEIQYELTDRLAFYLCGRKPDHKSGQHFLIPQRADSLDLSELAKAAKKKLQSLSNHLFEELAMDVYDEVDRRETDAVWLATQNHSTLVTETTVVPFLPVNPEYSSTRNQGRQKLARFNAHEFATLVIDILSDAKRRQQGSPLSRSKDNVELILRTVSTQHSTESQDNDQPDYDSVASDEDTDVETRASKANRQKLQTLQSENSSLRRQATASACQVQTGSDHKDTASHSSLKRRPSARGSRPMSMYETGSGQKPYLPMGEASHPEESRTRLQPFPTHIGRSALVTSSSSLPSFPSTLSWSRDESARRASRLEKQNSTPESDYDNTACDPEPDDTGSTRKGRQRSMLWQGDGLLPDTAEPHSVPSPTLPSTEDVIRKTEQITKNIQELLRAAQENKHDSYIPCSERIHVAVTEMAALFPKKPKSDTVRTSLRLLTSSAYRLQSECRKALPGDSSLPTDVQLVTQQVIQCAYDIAKAAKQLVTITTKENSS
B1 was tested. Which binding [1] did it give?
The binding was “binds”.

B2: G protein-coupled receptor kinase-interacting protein 2 (GIT2), GIT2-long, endogenous (protein, UniProt Q9JLQ2 1-708)
chain: B1 chain
With B2 as the binder, how does the binding [2] read?
Its binding is “binds”.
